Assay results published in PubChem BioAssay AID248 (DTP/NCI, 2004).
The list is a part of this screen's results and no random one: it gathers tests that were run many times, whatever their T/C, doses with no T/C, and many T/C values between a quarter and a half above the control. Further doses and runs are listed elsewhere. T/C is the treated group as % of the vehicle group. Some doses have a count of surviving animals in place of a T/C: the source holds a T/C of zero for them, seemingly a mark for toxic or unscored doses. Some doses without a T/C left all or most animals alive at the check, yet need not have been tolerated: the source hardly ever lists a survival T/C far under the control, and the zero likely stands for such cases as well. Counts of survivors are from the toxicity check (mostly the fifth day) where no day follows; animals may have died later. Schedule codes are those of the source, read here as Q, the interval in days (D) or hours (H), X, the number of doses. Some schedules carry Z or #; the key to these is not given. Some doses were run more than once; the values are given in rising order. Where survival is the endpoint, the PubChem record calls one and a half times the control and up active, and a quarter to a half above the control has no call in these data; cut-offs in other NCI protocols can differ.

Test system: L1210 leukemia ip in BDF1 mice, survival T/C
Assay: NCI In Vivo Anticancer Drug Screen. Data for tumor model L1210 Leukemia (intraperitoneal) in B6D2F1 (BDF1) mice
Conditions: T/C endpoint: mean survival time, higher T/C = longer survival
[1] = dose: 50.0 mg/kg/injection, schedule: Q01DX009 (ip), vehicle: saline
[2] = dose: 100.0 mg/kg/injection, schedule: Q01DX009 (ip), vehicle: saline
[3] = dose: 200.0 mg/kg/injection, schedule: Q01DX009 (ip), vehicle: saline
[4] = dose: 400.0 mg/kg/injection, schedule: Q01DX009 (ip), vehicle: saline
[5] = dose: 400.0 mg/kg/injection, schedule: Q01DX001 (ip), vehicle: Klucel (hydroxypropylcellulose) (HPC)
[6] = dose: 400.0 mg/kg/injection, schedule: Q04DX003 (ip), vehicle: Klucel (hydroxypropylcellulose) (HPC)
[7] = dose: 100.0 mg/kg/injection, schedule: Q04DX003 (ip), vehicle: Klucel (hydroxypropylcellulose) (HPC)
[8] = dose: 200.0 mg/kg/injection, schedule: Q04DX003 (ip), vehicle: Klucel (hydroxypropylcellulose) (HPC)
[9] = dose: 400.0 mg/kg/injection, schedule: Q04DX003 (ip), vehicle: saline with Tween-80
[10] = dose: 200.0 mg/kg/injection, schedule: Q01DX009 (ip), vehicle: Klucel (hydroxypropylcellulose) (HPC)
[11] = dose: 400.0 mg/kg/injection, schedule: Q04DX003 (ip), vehicle: saline
[12] = dose: 150.0 mg/kg/injection, schedule: Q04DX003 (ip), vehicle: Klucel (hydroxypropylcellulose) (HPC)
[13] = dose: 300.0 mg/kg/injection, schedule: Q04DX003 (ip), vehicle: Klucel (hydroxypropylcellulose) (HPC)

For CC(C)(C)N=C=N[N+](C)(C)Cc1ccccc1, which survivor count [1] is on record?
Its survivor count is 2 of 6.

What about the survivor count [2] of the same compound?
The survivor count was 0 of 6.

And the survivor count [3]?
Its survivor count is 0 of 6.

What about the survivor count [4] of the same compound?
Its survivor count is 0 of 6.

How did the survivor count (dose: 20.0 mg/kg/injection, schedule: Q01DX001 (ip), vehicle: saline) turn out when CCCCCCCCCC[Se]C#N was run?
The survivor count was 2 of 4.

And the survivor count (dose: 40.0 mg/kg/injection, schedule: Q01DX001 (ip), vehicle: saline)?
The survivor count was 0 of 4.

And the survivor count (dose: 80.0 mg/kg/injection, schedule: Q01DX001 (ip), vehicle: saline)?
Its survivor count is 0 of 4.

How did the survivor count (dose: 200.0 mg/kg/injection, schedule: Q01DX009 (ip), vehicle: other) turn out when CN(Cc1cnc2cc(N)nc(N)c2n1)c1ccc(C(=O)O)cc1 was run?
Its survivor count is 6 of 6.

What does the source list for CC(C)NC(=O)CN=NNc1nc[nH]c1C(N)=O?
survivor count (dose: 100.0 mg/kg/injection, schedule: Q01DX001 (ip), vehicle: Klucel (hydroxypropylcellulose) (HPC)): 3 of 6; survivor count (dose: 200.0 mg/kg/injection, schedule: Q01DX001 (ip), vehicle: Klucel (hydroxypropylcellulose) (HPC)): 1 of 6; survivor count [5]: 0 of 6

How did the survivor count [6] turn out when Cc1cccc(Cl)c1NC(=O)Cn1cccc1 was run?
The survivor count was 1 of 6.

How did the survivor count (dose: 300.0 mg/kg/injection, schedule: Q01DX001 (ip), vehicle: saline) turn out when OC1CC=CC=CC1 was run?
The survivor count was 2 of 6.

Which results are given for O=C(NCCCN1CC1)C(=O)Nc1cccnc1?
survivor count [7]: 2 of 6; survivor count [8]: 0 of 6; survivor count [6]: 0 of 6

What does the source list for C#CC(O)c1ccccc1 (stereo not given)?
survivor count [7]: 1 of 6; survivor count [8]: 0 of 6; survivor count [6]: 0 of 6

Which survivor count (dose: 400.0 mg/kg/injection, schedule: Q01DX001 (ip), vehicle: carboxymethylcellulose (CMC)) does the source give for Cc1cc(/C=C\c2ccc3ccccc3[n+]2C)c(O)c2ncccc12 here?
Its survivor count is 2 of 6.

Which survivor count [6] does the source give for CC1C(C(C)(C)C)N1C (stereo not given) here?
Its survivor count is 0 of 6.

Which survivor count (dose: 400.0 mg/kg/injection, schedule: Q01DX001 (ip), vehicle: saline with Tween-80) does the source give for NNC(=O)c1ccccc1CO here?
The survivor count was 1 of 6.

What does the source list for O=C1C=CC(=O)N1c1ccc(Br)c(Cl)c1?
survivor count (dose: 100.0 mg/kg/injection, schedule: Q04DX002 (ip), vehicle: other): 1 of 3; survivor count (dose: 200.0 mg/kg/injection, schedule: Q04DX002 (ip), vehicle: other): 0 of 3; survivor count (dose: 400.0 mg/kg/injection, schedule: Q04DX002 (ip), vehicle: other): 0 of 3

For NNc1n[nH]c(=O)n1N, which survivor count [6] is on record?
The survivor count was 0 of 6.

For c1ccc(Nc2nc(Nc3ccccc3)nc(Nc3ccccc3)n2)cc1, which survivor count (dose: 100.0 mg/kg/injection, schedule: Q04DX002 (ip), vehicle: Klucel (hydroxypropylcellulose) (HPC)) is on record?
Its survivor count is 3 of 3.

And the survivor count (dose: 200.0 mg/kg/injection, schedule: Q04DX002 (ip), vehicle: Klucel (hydroxypropylcellulose) (HPC))?
The survivor count was 2 of 3.

And the survivor count (dose: 400.0 mg/kg/injection, schedule: Q04DX002 (ip), vehicle: Klucel (hydroxypropylcellulose) (HPC))?
The survivor count was 0 of 3.

CN(C)/C=C1\C(=O)Nc2c1c(=O)n(C)c(=O)n2C was tested. Which survivor count [3] did it give?
Its survivor count is 0 of 3.

COc1ccc(C(C(C(C)=O)C(C)=O)C(C(C)=O)C(C)=O)cc1 was tested. Which survivor count [9] did it give?
Its survivor count is 4 of 6.

For CCCCCC(=C/c1ccccc1)/C=N/NC(=O)c1ccc[n+](C)c1, which survivor count [10] is on record?
The survivor count was 0 of 3.

How did the survivor count (dose: 30.0 mg/kg/injection, schedule: Q01DX Z (ip), vehicle: saline) turn out when Nc1cc(C(=O)Nc2ccc(C3=NCCCN3)cc2)ccc1C(=O)Nc1ccc(C2=NCCCN2)cc1 was run?
The survivor count was 0 of 6.

And the survivor count (dose: 60.0 mg/kg/injection, schedule: Q01DX Z (ip), vehicle: saline)?
The survivor count was 0 of 6.

And the survivor count (dose: 120.0 mg/kg/injection, schedule: Q01DX Z (ip), vehicle: saline)?
Its survivor count is 0 of 6.

How did the survivor count (dose: 400.0 mg/kg/injection, schedule: Q01DX001 (ip), vehicle: saline) turn out when CCOC(=O)N1C(=O)NC(=O)C1c1ccccc1 (stereo not given) was run?
The survivor count was 2 of 4.

CCCCC#CC(=O)OCCC was tested. Which survivor count [9] did it give?
The survivor count was 6 of 6.

What does the source list for Cn1cnccc1=O?
survivor count (dose: 100.0 mg/kg/injection, schedule: Q01DX009 (ip), vehicle: water): 6 of 6; survivor count (dose: 200.0 mg/kg/injection, schedule: Q01DX009 (ip), vehicle: water): 6 of 6; survivor count (dose: 400.0 mg/kg/injection, schedule: Q01DX009 (ip), vehicle: water): 6 of 6

For CC(=O)OC1CC2CC1C1C=CCC21 (stereo not given), which survivor count (dose: 200.0 mg/kg/injection, schedule: Q01DX009 (ip), vehicle: saline with Tween-80) is on record?
The survivor count was 4 of 6.

And the survivor count (dose: 400.0 mg/kg/injection, schedule: Q04DX003 (ip), vehicle: saline sonified)?
Its survivor count is 2 of 6.

How did the survivor count [9] turn out when CC1(C)CC(C)(c2ccc(O)cc2)Oc2ccccc21 (stereo not given) was run?
Its survivor count is 2 of 3.

How did the survivor count (dose: 100.0 mg/kg/injection, schedule: Q04DX002 (ip), vehicle: saline with Tween-80) turn out when c1ccc(C[S][Sn]([c]2ccccc2)([c]2ccccc2)[c]2ccccc2)cc1 was run?
The survivor count was 1 of 3.

And the survivor count (dose: 200.0 mg/kg/injection, schedule: Q04DX002 (ip), vehicle: saline with Tween-80)?
The survivor count was 0 of 3.

And the survivor count (dose: 400.0 mg/kg/injection, schedule: Q04DX002 (ip), vehicle: saline with Tween-80)?
Its survivor count is 0 of 3.

Cc1cc(C)[s+]s1 was tested. Which survivor count (dose: 75.0 mg/kg/injection, schedule: Q01DX009 (ip), vehicle: saline) did it give?
Its survivor count is 5 of 6.

What about the survivor count [2] of the same compound?
Its survivor count is 4 of 6.

What about the survivor count [3] of the same compound?
Its survivor count is 1 of 6.

What about the survivor count [11] of the same compound?
The survivor count was 1 of 6.

With O=C(c1ccccc1)C1(c2ccccc2)OP(c2ccccc2)(c2ccccc2)(c2ccccc2)CC1c1ccccc1 (stereo not given) as the compound, how does the survivor count (dose: 6.25 mg/kg/injection, schedule: Q04DX003 (ip), vehicle: saline with Tween-80) read?
The survivor count was 6 of 6.

For CCCCN(CCCC)CCN(CCCC)CCN(CCCC)CCCC, which survivor count (dose: 200.0 mg/kg/injection, schedule: Q04DX003 (ip), vehicle: saline) is on record?
Its survivor count is 4 of 6.

And the survivor count [11]?
The survivor count was 0 of 6.

How did the survivor count [1] turn out when CC1(C)N=C(N)N=C(N)N1c1ccc(OCCCOc2ccc(S(=O)(=O)F)cc2)c(Cl)c1 was run?
The survivor count was 0 of 6.

And the survivor count [2]?
Its survivor count is 0 of 6.

And the survivor count [3]?
Its survivor count is 0 of 6.

What about the survivor count [4] of the same compound?
The survivor count was 0 of 6.

How did the survivor count (dose: 480.0 mg/kg/injection, schedule: Q01DX015 (ip), vehicle: carboxymethylcellulose (CMC)) turn out when O=C1N(Br)C(=O)C(c2ccc(Cl)cc2)(c2ccc(Cl)cc2)N1Br was run?
Its survivor count is 4 of 6.

With C#CCN(C)/N=N/c1nc[nH]c1C(N)=O as the compound, how does the T/C (dose: 60.0 mg/kg/injection, schedule: Q01DX009 (ip), vehicle: Klucel (hydroxypropylcellulose) (HPC)) read?
The T/C was 141 % of control.

What about the T/C (dose: 100.0 mg/kg/injection, schedule: Q01DX009 (ip), vehicle: Klucel (hydroxypropylcellulose) (HPC)) of the same compound?
Its T/C is 141 % of control.

What about the T/C [12] of the same compound?
The T/C was 135 % of control.

What about the survivor count [12] of the same compound?
Its survivor count is 6 of 6.

And the T/C [10]?
The T/C was 146 % of control.

What about the T/C [8] of the same compound?
The T/C was 138 % of control.

And the survivor count (dose: 300.0 mg/kg/injection, schedule: Q01DX009 (ip), vehicle: Klucel (hydroxypropylcellulose) (HPC))?
The survivor count was 2 of 6.

And the survivor count [13]?
Its survivor count is 3 of 6 and 6 of 6.

What about the survivor count (dose: 500.0 mg/kg/injection, schedule: Q04DX003 (ip), vehicle: Klucel (hydroxypropylcellulose) (HPC)) of the same compound?
Its survivor count is 0 of 6.

What about the survivor count (dose: 600.0 mg/kg/injection, schedule: Q04DX003 (ip), vehicle: Klucel (hydroxypropylcellulose) (HPC)) of the same compound?
The survivor count was 1 of 6.

With CN(C)CCCN=Cc1cc([N+](=O)[O-])ccc1O.CN(C)CCCN=Cc1cc([N+](=O)[O-])ccc1O.[Ni+2] as the compound, how does the survivor count (dose: 200.0 mg/kg/injection, schedule: Q04DX003 (ip), vehicle: saline with Tween-80) read?
Its survivor count is 3 of 6.

What about the survivor count [9] of the same compound?
Its survivor count is 0 of 6.

OCCNC(=S)Nc1cccc(C(F)(F)F)c1 was tested. Which survivor count (dose: 400.0 mg/kg/injection, schedule: Q01DX009 (ip), vehicle: saline with Tween-80) did it give?
The survivor count was 2 of 3.

Which survivor count [9] does the source give for COc1cc2c(c(OC)c1OC)-c1ccc(SC)c(=O)cc1C(N=Cc1ccccc1)CC2 (stereo not given) here?
The survivor count was 0 of 6.

Which survivor count [12] does the source give for CC(C)CC(NC(=O)CNC(=O)OCc1ccccc1)C(=O)NC(Cc1ccccc1)C(=O)CCl (stereo not given) here?
Its survivor count is 5 of 6.

What about the survivor count [13] of the same compound?
The survivor count was 0 of 6.

What about the survivor count [5] of the same compound?
Its survivor count is 2 of 6.
